Measurements published in PubChem BioAssay AID504834 (National Center for Advancing Translational Sciences (NCATS), 2011).
Out of some 320,000 compounds screened, about 22,000 (6.9%) were called active. Inconclusive results, whose numbers are uncertain, are shown with a selection of clear calls. The call rests on the fitted dose curve; in most records, active means well fitted inhibition curve with a large enough effect; inconclusive means small, poorly fitted or top-dose-only effect, or another doubt; inactive means no such curve, though single readings can be large or run the other way. Where the call is inconclusive, the potency comes from a doubtful curve fit.
Potency means the concentration at half of the fitted maximal effect.

Assay: Primary qHTS for delayed death inhibitors of the malarial parasite plastid, 96 hour incubation
Details: P. falciparum luciferase reporter growth; series mostly up to 28.7 µM
How it was run: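 P. falciparum expressing integrated firefly luciferase grown in erythrocytes (2% hematocrit, 0.05% parasitemia final) with compounds for 96 hours at 37 C, 5% CO2. Growth inhibition read as loss of luminescence after adding luciferase detection reagent.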
With `O=C(Cn1c(=O)n(CCCCC(=O)NC2CCCC2)c(=O)c2ccccc21)NCCC1=CCCCC1` the Potency was inconclusive: 9.28 µM [inhibitor, partial curve, poor fit]. For `CC(CCc1ccccc1)NC(=O)COC(=O)C1=COCCO1` (stereo not given), the Potency was inconclusive: 20.8 µM [inhibitor, single point]. With `Oc1cc2ccccc2cc1-c1n[nH]c(=S)o1` the Potency was inconclusive: 11.7 µM [inhibitor, partial curve, poor fit]. In the case of `CCn1c(NCc2cccs2)nc2ccccc21`, the Potency is reported as inconclusive: 18.5 µM [inhibitor, single point]. With `O=C1c2ccccc2C(=O)c2c(Nc3ccc(CCO)cc3)ccc(O)c21` the Potency was inconclusive: 2.33 µM [inhibitor, full curve]. With `CCCC(C)C(=O)OCC(=O)Nc1ccc(Br)cc1` (stereo not given) the Potency was “inactive”. For `CC1CCCCC1NC(=O)CCNS(=O)(=O)c1ccc2c(c1)CCC(=O)N2` (stereo not given), the Potency was inconclusive: 18.5 µM [inhibitor, single point]. With `C[C@H]1CCC(=O)N([C@H](COc2ccccc2)Cc2ccccc2)CC1` the Potency was inconclusive: 9.28 µM [inhibitor, partial curve, poor fit]. For `O=C(O)c1cccc(N/N=C/c2ccc(OC(F)(F)F)cc2)c1`, the Potency was inconclusive: 16.5 µM [inhibitor, single point]. In the case of `CCO[C@@H]1OC(C(=O)N2CCN(Cc3ccccc3)CC2)=C[C@H](C2CC2)[C@H]1CCCO`, the Potency is reported as inconclusive: 9.28 µM [inhibitor, single point]. With `CCOC(=O)c1sc(NC(=O)c2ccc(Cl)s2)cc1C` the Potency was inconclusive: 18.5 µM [inhibitor, single point]. For `COc1ccc(/C(O)=C2/C(=O)C(=O)N(CCCC(=O)O)C2c2ccc(OC)c(OC)c2)cc1` (stereo not given), the Potency was inconclusive: 2.94 µM [inhibitor, single point]. With `CCOC(=O)c1c(/N=C/N(C)C)sc(C)c1C` the Potency was “inactive”. For `O=C(CN1C(=O)NC2(CCCCC2)C1=O)Nc1ccccc1N1CCCCC1`, the Potency was inconclusive: 9.28 µM [inhibitor, single point]. In the case of `N#CC(c1ccc(F)cc1)c1ccc(C(=O)c2ccc(F)cc2)cc1` (stereo not given), the Potency is reported as “inactive”. With `Cc1ccc(Oc2cc(NN3CCCCC3)c([N+](=O)[O-])cc2[N+](=O)[O-])c([N+](=O)[O-])c1` the Potency was inconclusive: 18.5 µM [inhibitor, single point]. For `COc1ccccc1Nc1ccc(N)cc1`, the Potency was inconclusive: 18.5 µM [inhibitor, partial curve, poor fit]. In the case of `O=c1c(Cc2ccc(F)cc2)c(O)ccn1CCc1ccccn1`, the Potency is reported as “inactive”. In the case of `CO/N=C/C(C#N)=C/c1cc(C(=O)c2ccc(F)cc2)cn1C`, the Potency is reported as inconclusive: 2.62 µM [inhibitor, full curve, poor fit]. For `CCCCCn1c(CN2CCN(C)CC2)nc2c1c(=O)n(C)c(=O)n2C`, the Potency was inconclusive: 18.5 µM [inhibitor, single point]. In the case of `CCN1CCN(c2ccc(NC(=O)CCc3c(C)nc4c(-c5ccccc5)c(C)nn4c3C)cc2)CC1`, the Potency is reported as inconclusive: 3.7 µM [inhibitor, full curve, poor fit]. In the case of `O=C(Nc1ccc(S(=O)(=O)N2CCCCC2)cc1)c1ccncc1`, the Potency is reported as inconclusive: 13.1 µM [inhibitor, partial curve, poor fit]. With `CCOC(=O)Cn1nnnc1C` the Potency was inconclusive: 18.5 µM [inhibitor, single point]. For `COc1cc(C(=O)OC2CCN(C)CC2)cc(OC)c1OC`, the Potency was inconclusive: 2.08 µM [inhibitor, full curve, poor fit]. In the case of `COc1ccc(NC(=O)Cn2nc(C(=O)O)c3ccccc3c2=O)cc1Cl`, the Potency is reported as “inactive”. In the case of `O=C(Cc1ccccc1)Nc1ccc(NC(=O)c2ccco2)nc1`, the Potency is reported as “inactive”. With `CCC(CC(C)(C)O)C(=O)NNC(=S)Nc1ccccc1` (stereo not given) the Potency was inconclusive: 1.65 µM [inhibitor, full curve]. In the case of `Cc1cc(Br)ccc1OCC(=O)NNC(=O)C(=O)Nc1ccccc1`, the Potency is reported as “inactive”. With `CC(=O)c1ccc(OCCCCCCCOc2ccc(C(C)=O)cc2)cc1` the Potency was inconclusive: 1.47 µM [inhibitor, partial curve]. For `Cc1ccc(CNC(=O)CSc2nc3n[nH]c(C)c3c(=N)n2-c2cccc(C)c2)cc1`, the Potency was active: 9.28 µM. In the case of `COc1ccc(CCNC(=O)c2cccc(Br)c2)cc1OC`, the Potency is reported as “inactive”. In the case of `COCc1c(C(=O)N/N=C/c2ccco2)nnn1-c1nonc1N`, the Potency is reported as inconclusive: 13.1 µM [inhibitor, single point]. With `NC(=O)c1c(NC(=O)CSc2nnc(-c3ccccc3)n2CC2CCCO2)sc2c1CCC2` (stereo not given) the Potency was inconclusive: 13.1 µM [inhibitor, single point]. In the case of `COc1ccc(NC(=O)c2cc(S(=O)(=O)N3CCCC3)c[nH]2)cc1`, the Potency is reported as inconclusive: 8.28 µM [inhibitor, partial curve, poor fit]. For `COc1cc2c(c(OC)c1OC)C(=O)CC2`, the Potency was inconclusive: 0.0828 µM [inhibitor, full curve, poor fit]. In the case of `O=C(CSc1ccc2ccccc2n1)NC1CC1`, the Potency is reported as inconclusive: 11.7 µM [inhibitor, single point]. For `C=C1c2ccccc2S(=O)(=O)N(Cc2ccccc2)C1COCc1ccccc1` (stereo not given), the Potency was inconclusive: 18.5 µM [inhibitor, single point]. In the case of `Cc1ccc(C(=O)N2CCCC(CCC(=O)NCc3ccc(F)c(F)c3)C2)cn1` (stereo not given), the Potency is reported as inconclusive: 5.22 µM [inhibitor, partial curve]. In the case of `CCCCNc1nnc(Cc2ccc(Cl)cc2)c(=O)[nH]1`, the Potency is reported as inconclusive: 1.65 µM [inhibitor, full curve]. With `CN1c2ccccc2N(C)C1c1ccc2c(c1)OCO2` the Potency was “inactive”. In the case of `COc1cc(OC)cc(-c2cc3nc(C)c(CCC(=O)NC(C)CCc4ccco4)c(C)n3n2)c1` (stereo not given), the Potency is reported as “inactive”. In the case of `CCC(=O)Nc1sc(Cc2ccc3c(c2)OCO3)c(C)c1C(N)=O`, the Potency is reported as “inactive”. With `N=c1c2c(n(Cc3ccc(Cl)cc3)c3c1CCC3)CCC2` the Potency was “inactive”. For `CCOc1ccsc1C(=O)OC`, the Potency was “inactive”. With `COc1cc(CN2CCN(c3ccccc3C)CC2)cc([N+](=O)[O-])c1O` the Potency was inconclusive: 4.65 µM [inhibitor, single point].
